Assay results as given in patent publication US20230391741A1, “AGAROFURAN COMPOUND, PREPARATION METHOD THEREFOR, AND APPLICATION THEREOF” (BEIJING CHY PHARMACEUTICAL TECHNOLOGY CO, LTD., priority 2021, published 2023).
Some of these results come from one statement about several compounds together.

Assay: Plasma pharmacokinetics after intraperitoneal injection in mouse (UPLC-MS/MS)
Type: in vivo
Details: IP 10 mg/kg
Experimental: Positive control drug 4-butyl-α-agarofuran preparation (BAF) and Compound 2 preparation were administered intraperitoneally at a dose of 10 mg/kg/10 ml (calculated according to the crude drug), and a suspension was prepared by ultrasonic grinding with double distilled water. Male ICR mice, with a weight of 21-24 g, were purchased from SPF (Beijing) Biotechnology Co., Ltd.
12 mice were randomly divided into 4 groups, there were 3 parallel cross blood sampling points in each group (5 points in groups 1 and 3, and 6 points in groups 2 and 4), it was administered according to the weight, and blood was collected from the orbital venous plexus at 5 min, 10 min, […], 30 min, 1 h, 2 h, 4 h, 6 h, 8 h, 12 h, and 24 h after administration. The bloods at each time point were collected into Eppendorf (EP) tubes anticoagulated with heparin, and placed on ice and centrifuged at 8000 r/min×5 min, to separate plasma for later use. […]

SMILES	Time to reach peak after injection [min]
CCCCC1=CCC[C@@]2(C)CC[C@@H]3C[C@]12OC3(C)C [BAF, 4-butyl-α-agarofuran, reference compound]	5 to 15
CC1(C)O[C@]23C[C@H]1CC[C@]2(C)CCC=C3CCCC(F)(F)F [Compound 2, (1R,6S,9R)6,10,10-trimethyl-2-(4,4,4-trifluorobutyl)-11-oxatricyclo [7.2.1.0^1,6]dodec-2-ene]	5 to 15
